Like-named read-outs stand apart in the source and are kept apart here.
Assay: Melamine formaldehyde PMC leakage
[1] = class code letter within Comment Code
[2] = code J of the Comment Code column, Table 1

Structure (SMILES) | Melamine formaldehyde PMC leakage (Comment Code J) | further results
CCCCCCCCCCCCCC(=O)OC(C)C [Material 196] |  | Melamine formaldehyde PMC leakage (Comment Code J) [1]: J (Melamine formaldehyde PMC leakage less than or equal to 5%)
CCCC(O)CCC1C(C)CCCC1(C)C (stereo not shown) [Material 1063] | J (Melamine formaldehyde PMC leakage less than or equal to 5%) | 
CC1C[C@H]2C3CCC(C3)[C@H]2CC1=O (stereo partly shown) [Material 980] | J (Melamine formaldehyde PMC leakage less than or equal to 5%) | 
CC1CCC2C(C)(C)C3CC12CC1OC13C (stereo not shown) [Material 715] | J (Melamine formaldehyde PMC leakage less than or equal to 5%) | 
CCCCCCCCCCCC(=O)OCC [Material 391] |  | Melamine formaldehyde PMC leakage (Comment Code J) [1]: J (Melamine formaldehyde PMC leakage less than or equal to 5%)
C=CC(C)(O)CCC=C(C)CCC=C(C)C (stereo not shown) [Material 63] |  | Melamine formaldehyde PMC leakage (Comment Code J) [1]: J (Melamine formaldehyde PMC leakage less than or equal to 5%)
CC(C)C1OCCC2(CC3CCC2(C)C3(C)C)O1 (stereo not shown) [Material 659] | J (Melamine formaldehyde PMC leakage less than or equal to 5%) | Comment Code: Melamine formaldehyde PMC leakage (code letter J): J (Melamine formaldehyde PMC leakage less than or equal to 5%)
CC1(CO)CC1CC1CC2CC2(C)C1(C)C (stereo not shown) [Material 185] |  | Melamine formaldehyde PMC leakage (Comment Code J) [1]: J (Melamine formaldehyde PMC leakage less than or equal to 5%); Comment Code: Melamine formaldehyde PMC leakage (code letter J): J (Melamine formaldehyde PMC leakage less than or equal to 5%)
CCCCCC=C1CCCC1=O [Material 850] | J (Melamine formaldehyde PMC leakage less than or equal to 5%) | 
CC(=O)C1=C(C)[C@@H]2C[C@@]3(C1)[C@H](C)CC[C@H]3C2(C)C [Material 1129] |  | Comment Code: Melamine formaldehyde PMC leakage [2]: J (Melamine formaldehyde PMC leakage less than or equal to 5%); Comment Code: Melamine formaldehyde PMC leakage (code letter J): J (Melamine formaldehyde PMC leakage less than or equal to 5%)
CCCCCCCC1(C)OCC(C)O1 (stereo not shown) [Material 838] |  | Comment Code: Melamine formaldehyde PMC leakage (code letter J): J (Melamine formaldehyde PMC leakage less than or equal to 5%)
C[C@@H]1CC[C@H]2C(C)(C)[C@H]3C[C@@]12CC1OC(C)(C)OC13C (stereo partly shown) [Material 674] | J (Melamine formaldehyde PMC leakage less than or equal to 5%) | Comment Code: Melamine formaldehyde PMC leakage (code letter J): J (Melamine formaldehyde PMC leakage less than or equal to 5%)
CCCCCCCCCCCCCCCC(=O)OC [Material 109] |  | Melamine formaldehyde PMC leakage (Comment Code J) [1]: J (Melamine formaldehyde PMC leakage less than or equal to 5%)
CC(CCO)CCc1ccccc1 (stereo not shown) [Material 962] | J (Melamine formaldehyde PMC leakage less than or equal to 5%) | 
COc1ccc(COC(=O)Cc2ccccc2)cc1 [Material 663] | J (Melamine formaldehyde PMC leakage less than or equal to 5%) | 
CC/C=C/CCOC(CC)OC (stereo not shown) [Material 167] |  | Melamine formaldehyde PMC leakage (Comment Code J) [1]: J (Melamine formaldehyde PMC leakage less than or equal to 5%)
C=CC(O)(CC)CCC=C(C)C (stereo not shown) [Material 390] |  | Melamine formaldehyde PMC leakage (Comment Code J) [1]: J (Melamine formaldehyde PMC leakage less than or equal to 5%)
Cc1cc2c(cc1C#N)C(C)(C)C(C)C(C)C2(C)C (stereo not shown) [Material 1142] |  | Comment Code: Melamine formaldehyde PMC leakage [2]: J (Melamine formaldehyde PMC leakage less than or equal to 5%); Comment Code: Melamine formaldehyde PMC leakage (code letter J): J (Melamine formaldehyde PMC leakage less than or equal to 5%)
COc1ccc(CC(C)C=O)cc1 (stereo not shown) [Material 586] | J (Melamine formaldehyde PMC leakage less than or equal to 5%) | 

Structure (SMILES) | Melamine formaldehyde PMC leakage (Comment Code J) | further results
C=C1C=CC(C(C)C)CCC(C)=CCC1 (stereo not shown) [Material 296] |  | Melamine formaldehyde PMC leakage (Comment Code J) [1]: J (Melamine formaldehyde PMC leakage less than or equal to 5%)
COC(=O)c1ccccc1NC(O)CC(C)c1ccccc1 (stereo not shown) [Material 1093] | J (Melamine formaldehyde PMC leakage less than or equal to 5%) | 
CCCCOC(=O)c1ccccc1C(=O)OCCCC [Material 455] |  | Comment Code: Melamine formaldehyde PMC leakage (code letter J): J (Melamine formaldehyde PMC leakage less than or equal to 5%)
C=CC(C)(CCC=C(C)C)OC(C)OCC (stereo not shown) [Material 916] | J (Melamine formaldehyde PMC leakage less than or equal to 5%) | 
CCC(O)COC1CCCCC1C(C)(C)C (stereo not shown) [Material 677] | J (Melamine formaldehyde PMC leakage less than or equal to 5%) | 
CCC(=O)OCC(=O)OC(C)C1CCCC(C)(C)C1 (stereo not shown) [Material 1009] | J (Melamine formaldehyde PMC leakage less than or equal to 5%) | 
CC1=CCC(C23CCCC(C)(C2)OC3)C1(C)C (stereo not shown) [Material 570] | J (Melamine formaldehyde PMC leakage less than or equal to 5%) | Comment Code: Melamine formaldehyde PMC leakage (code letter J): J (Melamine formaldehyde PMC leakage less than or equal to 5%)
CC(C)=CCCC1=CCC(C)(C=O)CC1 (stereo not shown) [Material 727] | J (Melamine formaldehyde PMC leakage less than or equal to 5%) | 
O=C(OCc1ccccc1)c1ccccc1 [Material 653] | J (Melamine formaldehyde PMC leakage less than or equal to 5%) | 
CC1=CC2C(C(C)C)CCC(C)(O)C2CC1 (stereo not shown) [Material 1047] | J (Melamine formaldehyde PMC leakage less than or equal to 5%) | 
CC/C(=C/CC1CC=C(C)C1(C)C)CO (stereo not shown) [Material 1024] | J (Melamine formaldehyde PMC leakage less than or equal to 5%) | Comment Code: Melamine formaldehyde PMC leakage (code letter J): J (Melamine formaldehyde PMC leakage less than or equal to 5%)
CCCCCCCCC(C)C=O (stereo not shown) [Material 92] |  | Melamine formaldehyde PMC leakage (Comment Code J) [1]: J (Melamine formaldehyde PMC leakage less than or equal to 5%)
CC1=CCOC(c2ccccc2)C1 (stereo not shown) [Material 1016] | J (Melamine formaldehyde PMC leakage less than or equal to 5%) | 
CC(CO)CCCc1ccccc1 (stereo not shown) [Material 1012] | J (Melamine formaldehyde PMC leakage less than or equal to 5%) | 
CCCCCCCCCCC=CC=O [Material 930] | J (Melamine formaldehyde PMC leakage less than or equal to 5%) | 
CC1=CCC2(C)CCCC(C)(C)C23CC13 (stereo not shown) [Material 1060] | J (Melamine formaldehyde PMC leakage less than or equal to 5%) | Comment Code: Melamine formaldehyde PMC leakage (code letter J): J (Melamine formaldehyde PMC leakage less than or equal to 5%)
CCCCCCCC1CCCC(=O)O1 (stereo not shown) [Material 463] |  | Melamine formaldehyde PMC leakage (Comment Code J) [1]: J (Melamine formaldehyde PMC leakage less than or equal to 5%)
C=CCCCCCCCCCO [Material 870] | J (Melamine formaldehyde PMC leakage less than or equal to 5%) | 
CC(C)=CCCC(C)c1ccc(C)cc1 (stereo not shown) [Material 713] | J (Melamine formaldehyde PMC leakage less than or equal to 5%) | 

Source: patent US20160090556A1, “PRODUCTS COMPRISING MALODOR REDUCTION MATERIALS” (The Procter & Gamble Company, priority 2014, published 2016)
